The results in this text go back to patent publication US8124964B2, “Field-effect transistor” (Nippon Kayaku Kabushiki Kaisha, priority 2006, dated 2012).

The data set in a line: Semiconductor characteristics of coated field-effect transistor (semiconductor parameter analyzer, under the atmosphere).
Setting [1] is: Example 1 process: 0.4% chloroform ink, spin coating, heat treatment under argon 80° C. 30 minutes before gold electrode deposition.
The mark [2] stands for this setting: Example 5 process: 0.4% chloroform ink, spin coating, heat treatment under nitrogen 80° C. 30 minutes after gold electrode deposition.
The mark [3] stands for this setting: Example 7: 1% toluene ink, dip-coating on comb-type electrode, 80° C. 5 minutes, bottom-contact type.
The mark [4] stands for this setting: Example 8: 1% toluene ink, inkjet recording method, 80° C. 5 minutes, top-contact type.
[5] abbreviates: Example 9: 1% toluene ink, inkjet recording method on comb type electrode, 80° C. 5 minutes, bottom-contact type.
Where [6] appears, read: Example 10: 1% tetrahydrofuran ink, spin coating, 80° C. 10 minutes, top-contact type.
Setting [7] is: Example 11: 0.5% cyclopentanone ink, spin coating, 80° C. 10 minutes, top-contact type.

For `c1ccc(-c2ccc3c(c2)sc2c4ccc(-c5ccccc5)cc4sc32)cc1` [Comparative Example 1, reference compound], the “semiconductor characteristics (current flow)” value (Comparative Example 2: chloroform filtrate (0.02% by mass) as ink, same operation as in Example 1) is given as “no current flow”.
In the case of `CCCCCCCCc1ccc2c(c1)sc1c3ccc(CCCCCCCC)cc3sc21` [Compound No. 16, 2,7-Dioctyl[1]benzothieno[3,2-b][1]benzothiophene], the ON/OFF ratio is 1×10^7 under setting [1]; 1×10^7 under setting [2]; 1×10^7 under setting [3]; 1×10^4 under setting [4]; 1×10^6 under setting [5]; 1×10^8 under setting [6]. Also, under setting [7], the ON/OFF ratio is 1×10^8. Moreover, the carrier mobility by setting is: under setting [1], 0.66 cm^2/Vs; under setting [2], 0.9 cm^2/Vs; under setting [3], 0.59 cm^2/Vs; under setting [4], 0.086 cm^2/Vs; under setting [5], 0.085 cm^2/Vs; under setting [6], 2.5 cm^2/Vs. Also, under setting [7], the carrier mobility amounted to 4.5 cm^2/Vs. This molecule showed a threshold under setting [1] of −47 V; a threshold under setting [2] of −47 V; a threshold under setting [3] of −52 V; a threshold under setting [4] of −50 V; a threshold under setting [5] of −56 V; a threshold under setting [6] of −58 V. This molecule also displayed a threshold under setting [7] of −64 V.
As to `CCCCCCCCCCCCc1ccc2c(c1)sc1c3ccc(CCCCCCCCCCCC)cc3sc21` [Compound No. 20, 2,7-Didodecyl[1]benzothieno[3,2-b][1]benzothiophene], under setting [1], the ON/OFF ratio is on record as 1×10^7, the carrier mobility stood at 0.61 cm^2/Vs and the threshold is recorded as −25 V. In addition, under setting [2], the ON/OFF ratio was 1×10^7, the carrier mobility was 1.2 cm^2/Vs and the threshold is listed as −25 V.
Turning to `CCCCCCCCCCCCc1ccc2c(c1)[se]c1c3ccc(CCCCCCCCCCCC)cc3[se]c21` [Compound No. 51, 2,7-Didodecyl-[1]benzoselenopheno[2,3-b]benzoselenophene], under setting [1], the ON/OFF ratio is 1×10^4, the carrier mobility is on record as 0.012 cm^2/Vs and the threshold was −30 V.
For `CCCCCCC#Cc1ccc2c(c1)sc1c3ccc(C#CCCCCCC)cc3sc21` [Compound No. 88, 2,7-Di(1-octynyl)[1]benzothieno[3,2-b][1]benzothiophene], under setting [1], the ON/OFF ratio is recorded as 1×10^2, the carrier mobility is reported as 4×10^−5 cm^2/Vs and the threshold is recorded as −35 V.
